Measured data: PubChem BioAssay AID1259254 (NCATS, 2017)
Purpose: 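Gene knock-downs that lead to re-replication, shown by excess G2 DNA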 (primary screen). System: human HCT116 colorectal cancer cells. Reagents: single siRNA against human genes. Duration: 3 days. Detection: 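Nuclei stained with Hoechst and imaged; cell-cycle phase assigned by DNA content; G2 share scaled per plate, non-targeting siRNA 0%, GMNN siRNA 100%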. Reading the numbers: G2 robust z-score: higher = more G2 cells, more excess DNA replication. Hit rule: 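An siRNA counts as active if its G2 robust z-score lies at least 5 MADs above the screen median; here such calls match roughly 38% of GMNN control or more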.
Shown is one part, drawn at random, of about 59,000 reagents. Over the whole deposit, about 1,550 (2.6%) got an active call. 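G2 share is only a proxy for re-replication; each gene was hit by three separate siRNAs, and active genes were retested.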 Unmarked entries are inactive. The numbers tell different reagents against one gene apart. Further read-outs or replicates are left out here. Not given: the amount of reagent.

gene | reagent no. | G2 robust z-score
PUSL1 | 1 | 0.895
PUSL1 | 2 | -0.168
PUSL1 | 3 | 0.88
ZNF22 | 1 | 0.228
ZNF22 | 2 | 0.675
ZNF22 | 3 | 1.19
CDCA8 | 1 | 10.6 (active)
CDCA8 | 2 | 13.4 (active)
CDCA8 | 3 | 6.34 (active)
CCL19 | 1 | 0.263
CCL19 | 2 | 1.53
CCL19 | 3 | -0.786
RAD23A | 1 | 6.7 (active)
RAD23A | 2 | 0.454
RAD23A | 3 | -1.15
RAD52 | 1 | 0.239
RAD52 | 2 | -0.261
RAD52 | 3 | 0.0947
GBE1 | 1 | 3.88
GBE1 | 2 | 0.281
GBE1 | 3 | 0.189
SLC46A1 | 1 | 1.65
SLC46A1 | 2 | 0.412
SLC46A1 | 3 | 0.538
CLMB | 1 | 3.3
CLMB | 2 | 1.77
CLMB | 3 | 1.72
GOT1L1 | 1 | -0.898
GOT1L1 | 2 | -0.519
GOT1L1 | 3 | 6.2 (active)

6 of these entries, set out differently.
{"gene":"ZNF22","reagent no.":1,"G2 robust z-score":0.228}
{"gene":"ZNF22","reagent no.":2,"G2 robust z-score":0.675}
{"gene":"ZNF22","reagent no.":3,"G2 robust z-score":1.19}
{"gene":"CDCA8","reagent no.":1,"G2 robust z-score":"10.6 (active)"}
{"gene":"CDCA8","reagent no.":2,"G2 robust z-score":"13.4 (active)"}
{"gene":"CDCA8","reagent no.":3,"G2 robust z-score":"6.34 (active)"}

The listing continues.
gene | reagent no. | G2 robust z-score
CRPPA | 1 | -1.06
CRPPA | 2 | -0.168
CRPPA | 3 | -0.235
PITPNM3 | 1 | -0.582
PITPNM3 | 2 | 0.434
PITPNM3 | 3 | -0.809
FLT4 | 1 | -1.03
FLT4 | 2 | 2.34
FLT4 | 3 | 0.00954
GINS1 | 1 | -0.537
GINS1 | 2 | 6.09 (active)
GINS1 | 3 | -0.435
S100P | 1 | 1.21
S100P | 2 | 1.98
S100P | 3 | 0.309
C1orf54 | 1 | 0.938
C1orf54 | 2 | 0.347
C1orf54 | 3 | 2.06
